Source: PMC7327037
These are yes or no findings as the source states them, for the method shown. In cells and extracts the contact can be indirect. Binding calls can cover weak binding; strength is not graded here. For part of these data: Where a sequence is shown, tags or fusion partners need not be part of it. Each block holds one molecule with its values, some of them ahead of it.

Experiments:
[1] = molecular target: T1, FOXM1D as used in the co-IP and reverse/reciprocal co-IP assays (UniProt Q08050); experiment: co-IP; co-IP and reverse (reciprocal) co-IP (Fig. 1b, f, g; Supplementary Fig. 3a); cells, tags and antibodies not told in the text shown
T1 sequence: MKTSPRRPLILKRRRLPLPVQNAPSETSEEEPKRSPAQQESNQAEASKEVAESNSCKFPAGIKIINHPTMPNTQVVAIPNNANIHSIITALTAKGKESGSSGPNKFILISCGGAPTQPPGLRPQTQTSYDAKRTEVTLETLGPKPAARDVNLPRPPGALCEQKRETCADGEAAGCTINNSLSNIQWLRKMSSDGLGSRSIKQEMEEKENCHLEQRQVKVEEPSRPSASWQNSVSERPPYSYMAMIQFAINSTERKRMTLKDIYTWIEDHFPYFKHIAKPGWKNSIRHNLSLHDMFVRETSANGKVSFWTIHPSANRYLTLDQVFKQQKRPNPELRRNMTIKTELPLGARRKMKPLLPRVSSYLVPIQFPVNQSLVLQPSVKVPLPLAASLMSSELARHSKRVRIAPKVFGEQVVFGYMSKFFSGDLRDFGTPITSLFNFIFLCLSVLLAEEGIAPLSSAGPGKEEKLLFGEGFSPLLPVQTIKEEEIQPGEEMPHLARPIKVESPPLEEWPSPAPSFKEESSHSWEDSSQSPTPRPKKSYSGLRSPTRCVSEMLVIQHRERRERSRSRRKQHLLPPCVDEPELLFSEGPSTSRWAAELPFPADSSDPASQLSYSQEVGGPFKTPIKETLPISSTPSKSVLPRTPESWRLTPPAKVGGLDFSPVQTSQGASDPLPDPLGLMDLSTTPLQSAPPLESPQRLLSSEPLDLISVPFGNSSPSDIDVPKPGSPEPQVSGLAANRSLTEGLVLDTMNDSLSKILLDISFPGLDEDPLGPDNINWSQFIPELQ

[2] = molecular target: T2, FOXM1D as used in the GST pull down assays (UniProt Q08050); experiment: pull-down; GST pull down (Supplementary Fig. 3b, 4c); which partner carried GST not told in the text shown
T2 sequence: T1 sequence

[3] = molecular target: p85α (PI3K regulatory subunit) as used in the reciprocal co-IP assays; experiment: co-IP; co-IP and reverse (reciprocal) co-IP (Fig. 1b, f, g; Supplementary Fig. 3a); cells, tags and antibodies not told in the text shown

- binding [1]: binds
Molecule: p85α (PI3K regulatory subunit) as used in the reciprocal co-IP assays

- binding [2]: binds
Molecule: p85α as used in the GST pull down assay

- binding [3]: binds
B1: FOXM1D as used in the co-IP and reverse/reciprocal co-IP assays (protein, UniProt Q08050-4 1-786)
chain: T1 sequence
